The record followed here is article PMC10708888, “Evolution towards simplicity in bacterial small heat shock protein system” (eLife, 2023).

For this assay, the target named is His-tagged luciferase, heat-aggregated on the BLI sensor (firefly) [luciferase: P08659]. As to the kind of experiment: BLI; ForteBio BLItz; His-tagged luciferase aggregated on the sensor; 5 µM sHsp (preincubated 10 min at 44 °C) bound for 10 min, then buffer F or Hsp70 system (0.7 µM DnaK, 0.28 µM DnaJ, 0.21 µM GrpE, 5 mM ATP) for 1 hr; room temperature; both purified. In general terms: Biolayer interferometry detects binding as a change in optical thickness at a sensor tip.

These are yes or no findings as the source states them, for the method shown. Some entries that bind do so weakly or less than the wild type.

B1: IbpA from Erwinia amylovora (protein, UniProt A0ABX7MII2 1-139)
chain: MRNFDLAPLYRSSIGFDRLINLLETSQNQGNNGGYPPYNVELVAENHYRITIAVAGFAESELEITSHDNLLSVRGSHPDEQQERTWLYQGIAERNFERKFQLAEHVHVRDARLENGLLYIDLERVVPEANQPRRIEIVK
On to B1, for which the binding entry was “binds”.
